Where two headings read alike, the source gives them in different places. No constants are given. Whether binding was seen depends on the method and setting. In cells and extracts the contact can be indirect. Here binding means that the protein was enriched with, or labelled near, the bait; the list need not be complete. No binding means not detected with the bait. Sequences can lack the tags named with a protein.
T1: HA-myc-BioID2-GID4 (human) (UniProt Q8IVV7)
T1 sequence: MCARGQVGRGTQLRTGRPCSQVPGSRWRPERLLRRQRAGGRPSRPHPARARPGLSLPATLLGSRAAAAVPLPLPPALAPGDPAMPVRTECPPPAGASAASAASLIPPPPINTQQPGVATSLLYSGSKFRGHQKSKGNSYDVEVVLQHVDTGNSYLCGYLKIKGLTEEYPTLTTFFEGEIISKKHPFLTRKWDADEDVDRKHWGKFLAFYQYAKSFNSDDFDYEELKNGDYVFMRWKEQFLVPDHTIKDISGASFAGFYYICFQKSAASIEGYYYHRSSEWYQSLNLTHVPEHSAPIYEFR

Amino acid sequences for entries named in this document (tags omitted).
UniProt Q92841: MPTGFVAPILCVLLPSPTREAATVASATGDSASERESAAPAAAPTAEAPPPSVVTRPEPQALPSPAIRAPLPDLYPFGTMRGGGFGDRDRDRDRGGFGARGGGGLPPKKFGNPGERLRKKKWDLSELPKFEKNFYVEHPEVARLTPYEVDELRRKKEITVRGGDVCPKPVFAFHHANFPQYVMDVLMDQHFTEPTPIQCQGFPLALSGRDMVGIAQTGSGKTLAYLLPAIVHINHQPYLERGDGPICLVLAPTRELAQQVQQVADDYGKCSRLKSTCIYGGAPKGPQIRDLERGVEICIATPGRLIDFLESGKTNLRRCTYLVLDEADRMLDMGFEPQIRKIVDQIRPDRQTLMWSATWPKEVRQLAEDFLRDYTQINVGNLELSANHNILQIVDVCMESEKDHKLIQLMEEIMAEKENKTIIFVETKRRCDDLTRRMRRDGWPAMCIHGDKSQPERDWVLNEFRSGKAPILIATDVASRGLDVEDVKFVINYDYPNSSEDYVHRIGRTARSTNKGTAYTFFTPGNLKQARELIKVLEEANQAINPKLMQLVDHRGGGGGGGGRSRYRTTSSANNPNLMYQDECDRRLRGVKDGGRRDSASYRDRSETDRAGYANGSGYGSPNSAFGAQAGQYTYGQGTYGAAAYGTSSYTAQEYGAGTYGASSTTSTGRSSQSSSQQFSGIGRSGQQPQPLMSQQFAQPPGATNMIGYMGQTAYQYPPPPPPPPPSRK
UniProt Q9NR30: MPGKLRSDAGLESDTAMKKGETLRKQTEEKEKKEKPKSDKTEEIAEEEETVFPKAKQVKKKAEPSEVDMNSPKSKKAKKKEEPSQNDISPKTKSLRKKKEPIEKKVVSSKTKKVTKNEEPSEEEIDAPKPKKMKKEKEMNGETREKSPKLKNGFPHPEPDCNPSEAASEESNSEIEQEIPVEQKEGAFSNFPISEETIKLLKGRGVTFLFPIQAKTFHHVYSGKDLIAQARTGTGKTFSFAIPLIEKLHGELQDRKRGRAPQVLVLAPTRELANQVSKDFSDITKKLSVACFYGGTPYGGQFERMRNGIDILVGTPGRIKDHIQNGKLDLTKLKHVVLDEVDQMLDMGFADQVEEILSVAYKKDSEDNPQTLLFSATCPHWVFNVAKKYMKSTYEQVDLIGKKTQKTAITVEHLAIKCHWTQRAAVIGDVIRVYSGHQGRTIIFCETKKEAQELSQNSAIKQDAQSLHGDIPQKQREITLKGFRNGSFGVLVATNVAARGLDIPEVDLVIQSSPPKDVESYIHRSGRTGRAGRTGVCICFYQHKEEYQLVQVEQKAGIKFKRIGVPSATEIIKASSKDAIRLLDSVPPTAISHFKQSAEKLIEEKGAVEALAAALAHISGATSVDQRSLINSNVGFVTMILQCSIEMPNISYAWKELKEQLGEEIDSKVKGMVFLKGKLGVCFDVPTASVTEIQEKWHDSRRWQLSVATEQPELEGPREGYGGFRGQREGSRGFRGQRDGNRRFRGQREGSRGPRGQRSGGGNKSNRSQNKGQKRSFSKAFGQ
UniProt Q9BUQ8: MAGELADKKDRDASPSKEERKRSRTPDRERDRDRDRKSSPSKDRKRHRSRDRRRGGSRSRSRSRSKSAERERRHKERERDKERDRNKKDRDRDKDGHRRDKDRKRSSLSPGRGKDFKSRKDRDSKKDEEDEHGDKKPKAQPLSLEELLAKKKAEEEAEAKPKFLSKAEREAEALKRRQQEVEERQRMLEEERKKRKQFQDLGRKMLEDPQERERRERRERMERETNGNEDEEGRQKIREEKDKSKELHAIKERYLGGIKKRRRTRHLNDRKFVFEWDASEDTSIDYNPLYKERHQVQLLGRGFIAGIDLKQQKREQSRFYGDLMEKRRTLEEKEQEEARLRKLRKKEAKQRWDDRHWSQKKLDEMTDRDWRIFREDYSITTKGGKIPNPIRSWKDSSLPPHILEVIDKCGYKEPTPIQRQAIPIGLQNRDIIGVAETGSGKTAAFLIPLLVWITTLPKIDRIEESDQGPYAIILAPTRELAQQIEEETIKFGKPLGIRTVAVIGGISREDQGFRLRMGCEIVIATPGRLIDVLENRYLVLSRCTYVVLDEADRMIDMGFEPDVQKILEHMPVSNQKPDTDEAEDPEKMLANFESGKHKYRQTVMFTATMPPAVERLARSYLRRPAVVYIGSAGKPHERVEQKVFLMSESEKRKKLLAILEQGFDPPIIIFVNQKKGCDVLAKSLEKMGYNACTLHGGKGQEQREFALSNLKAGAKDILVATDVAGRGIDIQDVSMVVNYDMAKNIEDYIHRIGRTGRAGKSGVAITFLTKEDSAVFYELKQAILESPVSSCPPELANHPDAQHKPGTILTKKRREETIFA
UniProt Q9UPY3: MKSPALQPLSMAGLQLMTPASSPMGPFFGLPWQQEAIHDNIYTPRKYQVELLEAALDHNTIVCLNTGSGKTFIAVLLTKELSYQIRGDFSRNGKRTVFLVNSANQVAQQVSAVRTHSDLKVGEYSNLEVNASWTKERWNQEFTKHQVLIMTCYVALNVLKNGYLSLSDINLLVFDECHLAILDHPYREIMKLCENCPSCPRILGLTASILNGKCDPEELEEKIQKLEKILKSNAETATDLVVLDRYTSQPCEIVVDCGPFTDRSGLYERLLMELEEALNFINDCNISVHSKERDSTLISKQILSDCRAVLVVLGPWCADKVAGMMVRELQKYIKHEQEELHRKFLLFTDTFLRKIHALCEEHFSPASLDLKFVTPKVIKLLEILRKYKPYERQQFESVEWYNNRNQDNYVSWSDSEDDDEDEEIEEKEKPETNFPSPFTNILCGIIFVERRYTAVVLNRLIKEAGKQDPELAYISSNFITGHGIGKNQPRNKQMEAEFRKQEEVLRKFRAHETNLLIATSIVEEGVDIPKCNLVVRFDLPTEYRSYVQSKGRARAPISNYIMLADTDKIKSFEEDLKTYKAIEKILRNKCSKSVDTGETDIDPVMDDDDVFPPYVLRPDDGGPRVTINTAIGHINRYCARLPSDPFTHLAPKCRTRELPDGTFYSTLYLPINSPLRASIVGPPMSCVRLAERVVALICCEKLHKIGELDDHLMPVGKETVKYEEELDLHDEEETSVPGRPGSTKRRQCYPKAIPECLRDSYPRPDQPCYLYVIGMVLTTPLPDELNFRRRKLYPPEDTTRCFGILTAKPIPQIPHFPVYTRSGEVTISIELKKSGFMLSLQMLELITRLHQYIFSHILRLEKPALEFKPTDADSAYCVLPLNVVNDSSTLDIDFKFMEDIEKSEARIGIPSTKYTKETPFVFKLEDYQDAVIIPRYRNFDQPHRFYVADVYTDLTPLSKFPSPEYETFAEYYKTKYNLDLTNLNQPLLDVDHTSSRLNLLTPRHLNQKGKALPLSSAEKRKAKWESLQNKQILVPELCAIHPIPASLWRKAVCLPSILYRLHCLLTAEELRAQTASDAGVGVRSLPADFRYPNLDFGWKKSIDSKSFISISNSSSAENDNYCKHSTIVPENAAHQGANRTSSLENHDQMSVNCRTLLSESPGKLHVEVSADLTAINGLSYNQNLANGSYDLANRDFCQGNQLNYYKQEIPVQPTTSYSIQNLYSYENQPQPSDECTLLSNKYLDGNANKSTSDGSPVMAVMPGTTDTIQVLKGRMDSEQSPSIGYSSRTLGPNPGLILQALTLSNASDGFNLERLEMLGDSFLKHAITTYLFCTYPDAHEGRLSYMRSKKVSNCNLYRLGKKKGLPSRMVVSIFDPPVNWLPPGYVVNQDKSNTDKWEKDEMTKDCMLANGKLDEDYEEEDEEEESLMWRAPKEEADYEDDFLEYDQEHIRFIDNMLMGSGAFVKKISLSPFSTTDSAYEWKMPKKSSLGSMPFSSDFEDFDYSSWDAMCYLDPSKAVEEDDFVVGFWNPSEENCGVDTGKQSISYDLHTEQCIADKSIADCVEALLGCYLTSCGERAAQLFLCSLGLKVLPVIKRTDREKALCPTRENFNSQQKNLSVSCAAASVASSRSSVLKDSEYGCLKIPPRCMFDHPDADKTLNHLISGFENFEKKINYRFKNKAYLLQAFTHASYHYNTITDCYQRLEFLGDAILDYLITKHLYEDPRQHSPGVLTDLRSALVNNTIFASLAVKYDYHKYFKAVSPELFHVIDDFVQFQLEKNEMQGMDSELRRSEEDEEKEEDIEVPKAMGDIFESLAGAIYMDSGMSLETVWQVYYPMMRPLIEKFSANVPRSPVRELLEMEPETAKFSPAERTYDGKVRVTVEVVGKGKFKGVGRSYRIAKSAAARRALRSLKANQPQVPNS
UniProt Q16666: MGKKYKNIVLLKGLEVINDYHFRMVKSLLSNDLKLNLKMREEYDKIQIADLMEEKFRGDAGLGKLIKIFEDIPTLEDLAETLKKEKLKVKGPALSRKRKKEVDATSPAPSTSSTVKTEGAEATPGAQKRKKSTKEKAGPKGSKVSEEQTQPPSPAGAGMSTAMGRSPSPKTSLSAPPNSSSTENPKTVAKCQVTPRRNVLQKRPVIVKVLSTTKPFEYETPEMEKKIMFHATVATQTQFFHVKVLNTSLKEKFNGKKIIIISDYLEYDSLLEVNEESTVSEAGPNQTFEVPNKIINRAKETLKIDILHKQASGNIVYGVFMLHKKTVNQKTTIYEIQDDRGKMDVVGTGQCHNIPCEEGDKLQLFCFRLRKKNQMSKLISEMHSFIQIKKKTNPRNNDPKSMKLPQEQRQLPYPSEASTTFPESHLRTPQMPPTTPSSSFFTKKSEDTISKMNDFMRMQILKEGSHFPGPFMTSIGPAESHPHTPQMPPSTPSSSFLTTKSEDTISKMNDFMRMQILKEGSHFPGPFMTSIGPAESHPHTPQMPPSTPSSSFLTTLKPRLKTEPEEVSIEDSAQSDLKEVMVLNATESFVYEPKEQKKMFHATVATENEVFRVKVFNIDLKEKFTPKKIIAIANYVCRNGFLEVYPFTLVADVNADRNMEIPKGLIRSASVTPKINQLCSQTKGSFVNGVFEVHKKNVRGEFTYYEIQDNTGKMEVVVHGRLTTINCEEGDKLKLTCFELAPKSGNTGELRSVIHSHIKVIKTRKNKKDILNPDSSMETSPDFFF
UniProt Q93009: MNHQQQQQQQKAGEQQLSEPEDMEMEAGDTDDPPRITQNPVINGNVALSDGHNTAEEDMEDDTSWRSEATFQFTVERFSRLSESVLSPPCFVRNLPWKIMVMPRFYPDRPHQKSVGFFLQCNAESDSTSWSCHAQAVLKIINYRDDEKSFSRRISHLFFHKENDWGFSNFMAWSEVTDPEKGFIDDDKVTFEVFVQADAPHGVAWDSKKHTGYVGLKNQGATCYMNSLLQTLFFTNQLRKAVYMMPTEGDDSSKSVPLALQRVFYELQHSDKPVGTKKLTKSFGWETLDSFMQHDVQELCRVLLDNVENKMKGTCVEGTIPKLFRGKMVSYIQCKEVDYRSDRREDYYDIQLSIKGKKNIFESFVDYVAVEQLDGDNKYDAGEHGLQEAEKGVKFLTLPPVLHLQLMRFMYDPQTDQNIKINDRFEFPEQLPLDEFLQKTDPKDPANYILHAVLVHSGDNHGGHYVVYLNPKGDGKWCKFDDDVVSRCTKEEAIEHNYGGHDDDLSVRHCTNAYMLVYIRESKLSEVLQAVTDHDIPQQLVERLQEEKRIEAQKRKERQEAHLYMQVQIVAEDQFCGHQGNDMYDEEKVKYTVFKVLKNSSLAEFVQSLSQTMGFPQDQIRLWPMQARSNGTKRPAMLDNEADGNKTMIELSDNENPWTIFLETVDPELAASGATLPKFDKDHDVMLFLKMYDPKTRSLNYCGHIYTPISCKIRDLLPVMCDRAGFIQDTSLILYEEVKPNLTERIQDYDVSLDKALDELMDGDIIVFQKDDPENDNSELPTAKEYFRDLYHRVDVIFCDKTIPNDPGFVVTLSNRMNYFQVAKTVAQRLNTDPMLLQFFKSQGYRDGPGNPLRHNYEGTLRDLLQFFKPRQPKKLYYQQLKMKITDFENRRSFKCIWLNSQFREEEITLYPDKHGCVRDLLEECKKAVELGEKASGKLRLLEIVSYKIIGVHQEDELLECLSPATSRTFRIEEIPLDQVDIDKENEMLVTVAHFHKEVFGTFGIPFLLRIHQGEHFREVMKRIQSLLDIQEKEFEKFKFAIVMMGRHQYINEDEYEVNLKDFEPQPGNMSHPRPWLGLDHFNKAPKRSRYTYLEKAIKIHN

B1: KIN (protein, UniProt O60870 1-393)
chain: MGKSDFLTPKAIANRIKSKGLQKLRWYCQMCQKQCRDENGFKCHCMSESHQRQLLLASENPQQFMDYFSEEFRNDFLELLRRRFGTKRVHNNIVYNEYISHREHIHMNATQWETLTDFTKWLGREGLCKVDETPKGWYIQYIDRDPETIRRQLELEKKKKQDLDDEEKTAKFIEEQVRRGLEGKEQEVPTFTELSRENDEEKVTFNLSKGACSSSGATSSKSSTLGPSALKTIGSSASVKRKESSQSSTQSKEKKKKKSALDEIMEIEEEKKRTARTDYWLQPEIIVKIITKKLGEKYHKKKAIVKEVIDKYTAVVKMIDSGDKLKLDQTHLETVIPAPGKRILVLNGGYRGNEGTLESINEKTFSATIVIETGPLKGRRVEGIQYEDISKLA
B2: DDX24 (protein, UniProt Q9GZR7 1-859)
chain: MKLKDTKSRPKQSSCGKFQTKGIKVVGKWKEVKIDPNMFADGQMDDLVCFEELTDYQLVSPAKNPSSLFSKEAPKRKAQAVSEEEEEEEGKSSSPKKKIKLKKSKNVATEGTSTQKEFEVKDPELEAQGDDMVCDDPEAGEMTSENLVQTAPKKKKNKGKKGLEPSQSTAAKVPKKAKTWIPEVHDQKADVSAWKDLFVPRPVLRALSFLGFSAPTPIQALTLAPAIRDKLDILGAAETGSGKTLAFAIPMIHAVLQWQKRNAAPPPSNTEAPPGETRTEAGAETRSPGKAEAESDALPDDTVIESEALPSDIAAEARAKTGGTVSDQALLFGDDDAGEGPSSLIREKPVPKQNENEEENLDKEQTGNLKQELDDKSATCKAYPKRPLLGLVLTPTRELAVQVKQHIDAVARFTGIKTAILVGGMSTQKQQRMLNRRPEIVVATPGRLWELIKEKHYHLRNLRQLRCLVVDEADRMVEKGHFAELSQLLEMLNDSQYNPKRQTLVFSATLTLVHQAPARILHKKHTKKMDKTAKLDLLMQKIGMRGKPKVIDLTRNEATVETLTETKIHCETDEKDFYLYYFLMQYPGRSLVFANSISCIKRLSGLLKVLDIMPLTLHACMHQKQRLRNLEQFARLEDCVLLATDVAARGLDIPKVQHVIHYQVPRTSEIYVHRSGRTARATNEGLSLMLIGPEDVINFKKIYKTLKKDEDIPLFPVQTKYMDVVKERIRLARQIEKSEYRNFQACLHNSWIEQAAAALEIELEEDMYKGGKADQQEERRRQKQMKVLKKELRHLLSQPLFTESQKTKYPTQSGKPPLLVSAPSKSESALSCLSKQKKKKTKKPKEPQPEQPQPSTSAN
B3: UBE2O (enzyme, UniProt Q9C0C9 1-1292)
chain: MADPAAPTPAAPAPAQAPAPAPEAVPAPAAAPVPAPAPASDSASGPSSDSGPEAGSQRLLFSHDLVSGRYRGSVHFGLVRLIHGEDSDSEGEEEGRGSSGCSEAGGAGHEEGRASPLRRGYVRVQWYPEGVKQHVKETKLKLEDRSVVPRDVVRHMRSTDSQCGTVIDVNIDCAVKLIGTNCIIYPVNSKDLQHIWPFMYGDYIAYDCWLGKVYDLKNQIILKLSNGARCSMNTEDGAKLYDVCPHVSDSGLFFDDSYGFYPGQVLIGPAKIFSSVQWLSGVKPVLSTKSKFRVVVEEVQVVELKVTWITKSFCPGGTDSVSPPPSVITQENLGRVKRLGCFDHAQRQLGERCLYVFPAKVEPAKIAWECPEKNCAQGEGSMAKKVKRLLKKQVVRIMSCSPDTQCSRDHSMEDPDKKGESKTKSEAESASPEETPDGSASPVEMQDEGAEEPHEAGEQLPPFLLKEGRDDRLHSAEQDADDEAADDTDDTSSVTSSASSTTSSQSGSGTSRKKSIPLSIKNLKRKHKRKKNKITRDFKPGDRVAVEVVTTMTSADVMWQDGSVECNIRSNDLFPVHHLDNNEFCPGDFVVDKRVQSCPDPAVYGVVQSGDHIGRTCMVKWFKLRPSGDDVELIGEEEDVSVYDIADHPDFRFRTTDIVIRIGNTEDGAPHKEDEPSVGQVARVDVSSKVEVVWADNSKTIILPQHLYNIESEIEESDYDSVEGSTSGASSDEWEDDSDSWETDNGLVEDEHPKIEEPPIPPLEQPVAPEDKGVVISEEAATAAVQGAVAMAAPMAGLMEKAGKDGPPKSFRELKEAIKILESLKNMTVEQLLTGSPTSPTVEPEKPTREKKFLDDIKKLQENLKKTLDNVAIVEEEKMEAVPDVERKEDKPEGQSPVKAEWPSETPVLCQQCGGKPGVTFTSAKGEVFSVLEFAPSNHSFKKIEFQPPEAKKFFSTVRKEMALLATSLPEGIMVKTFEDRMDLFSALIKGPTRTPYEDGLYLFDIQLPNIYPAVPPHFCYLSQCSGRLNPNLYDNGKVCVSLLGTWIGKGTERWTSKSSLLQVLISIQGLILVNEPYYNEAGFDSDRGLQEGYENSRCYNEMALIRVVQSMTQLVRRPPEVFEQEIRQHFSTGGWRLVNRIESWLETHALLEKAQALPNGVPKASSSPEPPAVAELSDSGQQEPEDGGPAPGEASQGSDSEGGAQGLASASRDHTDQTSETAPDASVPPSVKPKKRRKSYRSFLPEKSGYPDIGFPLFPLSKGFIKSIRGVLTQFRAALLEAGMPECTEDK
B4: SCAF1 (protein, UniProt Q9H7N4 1-1312)
chain: MEEEDESRGKTEESGEDRGDGPPDRDPTLSPSAFILRAIQQAVGSSLQGDLPNDKDGSRCHGLRWRRCRSPRSEPRSQESGGTDTATVLDMATDSFLAGLVSVLDPPDTWVPSRLDLRPGESEDMLELVAEVRIGDRDPIPLPVPSLLPRLRAWRTGKTVSPQSNSSRPTCARHLTLGTGDGGPAPPPAPSSASSSPSPSPSSSSPSPPPPPPPPAPPAPPAPRFDIYDPFHPTDEAYSPPPAPEQKYDPFEPTGSNPSSSAGTPSPEEEEEEEEEEEEEEEDEEEEEGLSQSISRISETLAGIYDDNSLSQDFPGDESPRPDAQPTQPTPAPGTPPQVDSTRADGAMRRRVFVVGTEAEACREGKVSVEVVTAGGAALPPPLLPPGDSEIEEGEIVQPEEEPRLALSLFRPGGRAARPTPAASATPTAQPLPQPPAPRAPEGDDFLSLHAESDGEGALQVDLGEPAPAPPAADSRWGGLDLRRKILTQRRERYRQRSPSPAPAPAPAAAAGPPTRKKSRRERKRSGEAKEAASSSSGTQPAPPAPASPWDSKKHRSRDRKPGSHASSSARRRSRSRSRSRSTRRRSRSTDRRRGGSRRSRSREKRRRRRRSASPPPATSSSSSSRRERHRGKHRDGGGSKKKKKRSRSRGEKRSGDGSEKAPAPAPPPSGSTSCGDRDSRRRGAVPPSIQDLTDHDLFAIKRTITVGRLDKSDPRGPSPAPASSPKREVLYDSEGLSGEERGGKSSQKDRRRSGAASSSSSSREKGSRRKALDGGDRDRDRDRDRDRDRSSKKARPPKESAPSSGPPPKPPVSSGSGSSSSSSSCSSRKVKLQSKVAVLIREGVSSTTPAKDAASAGLGSIGVKFSRDRESRSPFLKPDERAPTEMAKAAPGSTKPKKTKVKAKAGAKKTKGTKGKTKPSKTRKKVRSGGGSGGSGGQVSLKKSKADSCSQAAGTKGAEETSWSGEERAAKVPSTPPPKAAPPPPALTPDSQTVDSSCKTPEVSFLPEEATEEAGVRGGAEEEEEEEEEEEEEEEEEEQQPATTTATSTAAAAPSTAPSAGSTAGDSGAEDGPASRVSQLPTLPPPMPWNLPAGVDCTTSGVLALTALLFKMEEANLASRAKAQELIQATNQILSHRKPPSSLGMTPAPVPTSLGLPPGPSSYLLPGSLPLGGCGSTPPTPTGLAATSDKREGSSSSEGRGDTDKYLKKLHTQERAVEEVKLAIKPYYQKKDITKEEYKDILRKAVHKICHSKSGEINPVKVSNLVRAYVQRYRYFRKHGRKPGDPPGPPRPPKEPGPPDKGGPGLPLPPL
B5: DDX50 (protein, UniProt Q9BQ39 1-737)
chain: MPGKLLWGDIMELEAPLEESESQKKERQKSDRRKSRHHYDSDEKSETRENGVTDDLDAPKAKKSKMKEKLNGDTEEGFNRLSDEFSKSHKSRRKDLPNGDIDEYEKKSKRVSSLDTSTHKSSDNKLEETLTREQKEGAFSNFPISEETIKLLKGRGVTYLFPIQVKTFGPVYEGKDLIAQARTGTGKTFSFAIPLIERLQRNQETIKKSRSPKVLVLAPTRELANQVAKDFKDITRKLSVACFYGGTSYQSQINHIRNGIDILVGTPGRIKDHLQSGRLDLSKLRHVVLDEVDQMLDLGFAEQVEDIIHESYKTDSEDNPQTLLFSATCPQWVYKVAKKYMKSRYEQVDLVGKMTQKAATTVEHLAIQCHWSQRPAVIGDVLQVYSGSEGRAIIFCETKKNVTEMAMNPHIKQNAQCLHGDIAQSQREITLKGFREGSFKVLVATNVAARGLDIPEVDLVIQSSPPQDVESYIHRSGRTGRAGRTGICICFYQPRERGQLRYVEQKAGITFKRVGVPSTMDLVKSKSMDAIRSLASVSYAAVDFFRPSAQRLIEEKGAVDALAAALAHISGASSFEPRSLITSDKGFVTMTLESLEEIQDVSCAWKELNRKLSSNAVSQITRMCLLKGNMGVCFDVPTTESERLQAEWHDSDWILSVPAKLPEIEEYYDGNTSSNSRQRSGWSSGRSGRSGRSGGRSGGRSGRQSRQGSRSGSRQDGRRRSGNRNRSRSGGHKRSFD
B6: DHX40 (protein, UniProt Q8IX18 1-779)
chain: MSRFPAVAGRAPRRQEEGERSRDLQEERLSAVCIADREEKGCTSQEGGTTPTFPIQKQRKKIIQAVRDNSFLIVTGNTGSGKTTQLPKYLYEAGFSQHGMIGVTQPRKVAAISVAQRVAEEMKCTLGSKVGYQVRFDDCSSKETAIKYMTDGCLLKHILGDPNLTKFSVIILDEAHERTLTTDILFGLLKKLFQEKSPNRKEHLKVVVMSATMELAKLSAFFGNCPIFDIPGRLYPVREKFCNLIGPRDRENTAYIQAIVKVTMDIHLNEMAGDILVFLTGQFEIEKSCELLFQMAESVDYDYDVQDTTLDGLLILPCYGSMTTDQQRRIFLPPPPGIRKCVISTNISATSLTIDGIRYVVDGGFVKQLNHNPRLGLDILEVVPISKSEALQRSGRAGRTSSGKCFRIYSKDFWNQCMPDHVIPEIKRTSLTSVVLTLKCLAIHDVIRFPYLDPPNERLILEALKQLYQCDAIDRSGHVTRLGLSMVEFPLPPHLTCAVIKAASLDCEDLLLPIAAMLSVENVFIRPVDPEYQKEAEQRHRELAAKAGGFNDFATLAVIFEQCKSSGAPASWCQKHWIHWRCLFSAFRVEAQLRELIRKLKQQSDFPKETFEGPKHEVLRRCLCAGYFKNVARRSVGRTFCTMDGRGSPVHIHPSSALHEQETKLEWIIFHEVLVTTKVYARIVCPIRYEWVRDLLPKLHEFNAHDLSSVARREVREDARRRWTNKENVKQLKDGISKDVLKKMQRRNDDKSISDARARFLERKQQRTQDHSDTRKETG

Columns and labels:
[1] = target: T1, HA-myc-BioID2-GID4 (human); assay: proximity labelling
[2] = target: T1, HA-myc-BioID2-GID4 (human); assay: proximity labelling; remark: listed apart in the source

Row | Molecule | binding [1] | binding [2]
1 | DDX17 (from UniProt Q92841 1-729) | binds | no binding (only with 10 uM PFI-7)
2 | DDX21 (from UniProt Q9NR30 1-783) | binds | no binding (only with 10 uM PFI-7)
3 | DDX23 (from UniProt Q9BUQ8 1-820) | binds | –
4 | DICER1 (from UniProt Q9UPY3 1-1922) (enzyme) | no binding | –
5 | IFI16 (from UniProt Q16666 1-785) | binds | –
6 | USP7 (from UniProt Q93009 1-1102) (enzyme) | binds | –
7 | B1 | binds | no binding (only with 10 uM PFI-7)
8 | B2 | binds | –
9 | B3 | binds | –
10 | B4 | binds | –
11 | B5 | – | no binding (only with 10 uM PFI-7)
12 | B6 | no binding | –

From paper doi:10.1101/2023.01.17.524225 (bioRxiv, 2023)
